## Screening data, single-dose tests

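Phenotypic screen: M. tuberculosis growth, cholesterol and DPPC medium, 4 days; the read-out is not stated. Concentration: 500 µM. Higher reads as more growth inhibition (inferred: compounds with an IC50 in retests scored well above the rest). About 18,000 compounds were tested under these conditions; 5% (about 900) showed 50% or more at least once.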

Results are given as percent effect.
The record does not define 0% and 100%; most values in the screen are far below 50% and negative numbers occur (in some assays of this library far below -100).
The compounds are a random part of those screened.

For CC(C)OCCCNC(=O)C1CCNC1 (centres unmarked) the result was -8.567%.
For O=C(NC1CCNCC1)c1ccc(F)cc1 the result was -2.829%.
For COCCCNC(=O)CCc1nc(-c2ccsc2)no1 the result was 16.34%.
For Cn1cc(CN)c(C(F)(F)F)n1 the result was -3.417%.
For CN(C)C(=O)CCN1CCC(CNc2ccccn2)C1 (centres unmarked) the result was -1.272%.
For Cc1cc(NC(=O)NC2CCOC2)n(C(C)C)n1 (centres unmarked) the result was 11.33%.
For O=C(CCN1CCCC1c1ccsc1)N1CCOCC1 (centres unmarked) the result was 5.712%.
For OC1(Cc2ccccn2)CCNCC1 the result was 19.09%.
For CC(C)c1ncc(C(=O)Nc2ccc(C(N)=O)nc2)s1 the result was 3.587%.
For COCc1nnc(-c2ccc3c(c2)OCO3)o1 the result was -29.92%.
For O=C(c1ccc(Br)c(O)c1)N1CCCC1CCCO (centres unmarked) the result was 22.63%.
For Nc1cncc(-c2ccc(CN3CCCC3)cn2)c1 the result was -1093%.
For CC(NC(=O)CN1CCCC1=O)C(=O)N(C)C (centres unmarked) the result was -18.17%.
For Cc1cc(S(=O)(=O)Nc2cccnc2N(C)C)c(C)o1 the result was 21.98%.
For Cc1nc(C)c(C(=O)N2CCCC3(CCOC3)C2)s1 (centres unmarked) the result was 0.364%.
For Cc1cccnc1CCO the result was -17.79%.
For CN1CCC(NC(=O)C2CCCCC2)CC1 the result was 14.08%.
For NCC(=O)N1CCN(c2ccccc2F)CC1 the result was 6.788%.
For Cc1ncn(CC(=O)Nc2ccccc2F)c(=O)c1C the result was -14.95%.
For CN(C)S(=O)(=O)NCc1ccccc1CO the result was 2.89%.
For O=C(CO)N1CCCC(CCc2ccccc2F)C1 (centres unmarked) the result was 48.21%.
For O=C1Nc2ccccc2C1C1CCNCC1 (centres unmarked) the result was 9.016%.
For CC(=O)c1csc(C(=O)Nc2n[nH]c(C3CCC3)n2)c1 the result was -5.105%.
For Cc1cc(NC(=O)NCC[S+]([O-])C(C)(C)C)no1 (centres unmarked) the result was -12.72%.
For CC(C)CC(CN)NS(=O)(=O)c1c(F)cccc1F (centres unmarked) the result was 13.43%.
For COCCN(C)CCNC(=O)c1ccc(C)c(OC)c1 the result was 25.99%.
For OCc1cc(N2CCC(O)CC2)ccn1 the result was 26.8%.
For N#CCSCC(=O)NCc1ccc(Cl)s1 the result was 5.8%.
For CNc1ncccc1OC the result was -7.856%.
For COC(=O)C(C)(C)CCN1CCC[C@@H]1CO the result was 42.33%.
For Cc1nn(C)c(C)c1CC(=O)Nc1cccnc1O the result was -2.629%.
For NCCc1nnc2n1CCC2 the result was 2.146%.
For CNC(=O)C1CN(C(=O)Cc2ccc(F)cc2)CCO1 (centres unmarked) the result was -6.813%.
For O=C(N[C@H]1CCCNC1)c1ccc(F)cc1F the result was 10.84%.
For COCc1nn(Cc2csc(C(C)C)n2)c(=O)o1 the result was 70.08%.
For CSCc1nnc(SC)o1 the result was 10.61%.
For CSCc1noc(CN2CCN(c3nc[nH]n3)CC2)n1 the result was 6.626%.
For CN(c1ccc(CN)cc1)S(C)(=O)=O the result was 1.636%.
For CCNc1ccc(N2CCOCC2)cc1 the result was 26.18%.
For CC(=O)C1CN(C(=O)OC(C)(C)C)CCO1 (centres unmarked) the result was -3.104%.
For CN(C(=O)c1cccn1C)C1CCCC1 the result was 8.775%.
For CN(C)C(=O)COC(=O)c1ccc(Cl)cc1O the result was -3.023%.
For CCOC(=O)CNC1=NS(=O)(=O)c2ccccc21 the result was -7.782%.
For COCc1nc(C)c(C(=O)NCC(=O)C(C)C)s1 the result was 12.22%.
For Cc1cc(C)n(C2CCCNC2)n1 (centres unmarked) the result was -2.044%.
For CCCn1cc(C)c(N)n1 the result was 12.27%.
For Nc1ccc(N2CCNCC2=O)cn1 the result was -30.06%.
For CCN(CC)C(=O)COc1cccc(S(C)(=O)=O)c1 the result was 5.292%.
For CCc1nc(C)c(C(=O)N2CCOCC(O)C2)o1 (centres unmarked) the result was 6.156%.
For CC(=O)Nc1ccccc1CN(C)Cc1ccncc1 the result was -7.261%.
For OCCNCCNCc1ccc(-c2ccccc2Cl)o1 the result was 93.99%.
For CCN1CCN(CCOc2ccc(C#N)cc2)CC1 the result was 3.632%.
For NC(=O)c1cc(NC(=O)N2CCCC2)ccc1Cl the result was -3.532%.
For CCC(NC(=O)c1ccc(O)cc1F)[C@H]1C[C@H](O)C1 (some centres unmarked) the result was 12.06%.
For CNCc1cnc(C)s1 the result was 1.131%.
For Cc1ncc(C(=O)N2C[C@@H]3CCCN[C@@H]3C2)cn1 the result was -19.94%.
For CCNS(=O)(=O)c1ccc(CC(N)=O)cc1 the result was 0.4079%.

Repeated from the top, 7 entries:

compound,Percent Effect
CC(C)OCCCNC(=O)C1CCNC1 (centres unmarked),-8.567
O=C(NC1CCNCC1)c1ccc(F)cc1,-2.829
COCCCNC(=O)CCc1nc(-c2ccsc2)no1,16.34
Cn1cc(CN)c(C(F)(F)F)n1,-3.417
CN(C)C(=O)CCN1CCC(CNc2ccccn2)C1 (centres unmarked),-1.272
Cc1cc(NC(=O)NC2CCOC2)n(C(C)C)n1 (centres unmarked),11.33
O=C(CCN1CCCC1c1ccsc1)N1CCOCC1 (centres unmarked),5.712

The values are deposited in ChEMBL (CHEMBL3988442, “University of Dundee, Small-Polar-MMV Screening Library” (2021)).